Here are results for one substance from patent US20230313140A1, “METHOD FOR PREPARING T CELLS FOR ADOPTIVE T CELL THERAPY” (St. Jude Children's Research Hospital, Inc., priority 2022, published 2023).

Chains of the proteins cited; added tags and fusions are not shown. Residues count along the entry.
UniProt Q6NZJ6: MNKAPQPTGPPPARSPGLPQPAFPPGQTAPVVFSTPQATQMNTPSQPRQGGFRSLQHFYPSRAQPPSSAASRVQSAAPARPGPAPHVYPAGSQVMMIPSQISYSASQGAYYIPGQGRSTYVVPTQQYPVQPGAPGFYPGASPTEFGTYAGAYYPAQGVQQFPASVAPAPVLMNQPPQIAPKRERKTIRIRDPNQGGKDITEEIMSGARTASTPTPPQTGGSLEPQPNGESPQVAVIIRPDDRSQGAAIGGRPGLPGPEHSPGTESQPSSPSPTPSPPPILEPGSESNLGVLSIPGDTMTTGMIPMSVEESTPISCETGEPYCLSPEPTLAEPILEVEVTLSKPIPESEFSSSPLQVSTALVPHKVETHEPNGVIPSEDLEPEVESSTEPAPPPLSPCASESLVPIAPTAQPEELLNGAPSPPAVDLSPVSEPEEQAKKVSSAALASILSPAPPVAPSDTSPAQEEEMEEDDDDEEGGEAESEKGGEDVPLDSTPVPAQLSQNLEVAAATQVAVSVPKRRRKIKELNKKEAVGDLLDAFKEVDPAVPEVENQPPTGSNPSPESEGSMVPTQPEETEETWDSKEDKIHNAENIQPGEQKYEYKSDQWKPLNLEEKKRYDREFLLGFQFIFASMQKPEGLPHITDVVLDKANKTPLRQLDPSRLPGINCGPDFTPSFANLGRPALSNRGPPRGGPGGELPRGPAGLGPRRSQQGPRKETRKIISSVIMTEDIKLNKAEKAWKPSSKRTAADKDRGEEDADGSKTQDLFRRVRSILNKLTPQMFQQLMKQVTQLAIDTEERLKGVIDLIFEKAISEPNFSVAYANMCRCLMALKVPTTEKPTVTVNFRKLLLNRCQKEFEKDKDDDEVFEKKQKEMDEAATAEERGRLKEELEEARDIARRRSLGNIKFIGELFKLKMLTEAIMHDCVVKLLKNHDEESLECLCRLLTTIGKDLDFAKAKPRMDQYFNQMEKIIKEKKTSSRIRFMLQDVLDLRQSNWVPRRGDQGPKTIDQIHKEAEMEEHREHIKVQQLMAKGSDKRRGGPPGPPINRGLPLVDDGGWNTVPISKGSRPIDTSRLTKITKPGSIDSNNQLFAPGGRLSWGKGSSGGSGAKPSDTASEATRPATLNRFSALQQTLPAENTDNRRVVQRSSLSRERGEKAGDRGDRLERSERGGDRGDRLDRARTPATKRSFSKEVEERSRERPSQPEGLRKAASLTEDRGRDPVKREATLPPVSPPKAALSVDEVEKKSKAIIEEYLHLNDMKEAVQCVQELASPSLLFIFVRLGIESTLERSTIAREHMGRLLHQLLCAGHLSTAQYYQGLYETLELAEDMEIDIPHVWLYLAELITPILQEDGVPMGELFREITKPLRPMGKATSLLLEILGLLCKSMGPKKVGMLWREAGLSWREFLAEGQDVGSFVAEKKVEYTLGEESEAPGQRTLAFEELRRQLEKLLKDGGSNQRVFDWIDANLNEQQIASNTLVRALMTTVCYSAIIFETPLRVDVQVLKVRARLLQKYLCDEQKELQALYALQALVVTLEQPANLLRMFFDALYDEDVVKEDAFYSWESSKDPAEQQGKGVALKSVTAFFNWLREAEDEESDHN
UniProt P60843, residues 2-406: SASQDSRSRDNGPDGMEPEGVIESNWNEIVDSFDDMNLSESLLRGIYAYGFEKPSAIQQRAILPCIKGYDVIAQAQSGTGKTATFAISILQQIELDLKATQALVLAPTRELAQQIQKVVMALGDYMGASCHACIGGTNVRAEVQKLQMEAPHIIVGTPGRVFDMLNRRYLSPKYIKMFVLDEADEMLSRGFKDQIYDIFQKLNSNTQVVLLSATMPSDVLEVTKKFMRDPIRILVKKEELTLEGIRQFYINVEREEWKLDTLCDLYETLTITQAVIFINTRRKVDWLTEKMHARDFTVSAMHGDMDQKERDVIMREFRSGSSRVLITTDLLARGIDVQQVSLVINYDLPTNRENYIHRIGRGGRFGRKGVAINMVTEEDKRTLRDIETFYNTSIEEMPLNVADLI

In the assay the target is eukaryotic translation initiation factor 4GI (eIF4GI), endogenous, from murine CD8+ T cells (mouse) (UniProt Q6NZJ6). Description: co-immunoprecipitation from lysates of activated murine CD8+ T cells, western blot; interaction reduced after brief mTOR inhibition (Torin).

No constants are given. Whether binding was seen depends on the method and setting. In cells and extracts the contact can be indirect. Some binding calls cover weakened binding; strength is not graded here.

In the case of “eukaryotic initiation factor-4A (eIF4A), endogenous, from murine CD8+ T cells (from UniProt P60843 2-406) (enzyme)”, the binding result is “binds”.
